Values from PubChem BioAssay AID1508597 (Cure First, 2020)
This is a random part of the about 2,100 reagents, in one setting of the screen. 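Calls flag viability under 80% in either arm, not effects specific to rucaparib; the reference for percent is not stated.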 Not given: the 100% reference.

Purpose: 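Genes whose silencing sensitises or protects ovarian cancer cells against rucaparib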 (primary screen)
System: human ovarian carcinoma lines grown from tumours: OCI-P5x (papillary serous) and OCI-C5x (clear cell)
Reagents: siRNA pool against human genes, 1.25 pmol siRNA per well
Duration: 72 h or 96 h, depending on the cell culture
Conditions: rucaparib 20 µM (about IC30) or vehicle, present until read-out
Rucaparib or vehicle: Rucaparib
Cell line: OCI-C5x (clear cell)
Measured: 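ATP luminescence measured at 72 or 96 h according to the culture, then normalised and expressed as percent viability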
Direction: viability, normalised: higher = more viable cells remaining
Rule for the call: 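Active when normalised viability falls below 80 percent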
Calls: active = viability under 80%; inactive = viability 80% or more

gene knocked down | technical replicate | viability, normalised (%) | Call
NRXN1 | 1 | 62 | active
NRXN1 | 2 | 54.4 | active
NRXN1 | 3 | 46.5 | active
JMJD8 | 1 | 44.6 | active
JMJD8 | 2 | 41.5 | active
JMJD8 | 3 | 47.2 | active
FN3K | 1 | 51 | active
FN3K | 2 | 54.8 | active
FN3K | 3 | 49.5 | active
KDM1A | 1 | 38.6 | active
KDM1A | 2 | 37.6 | active
KDM1A | 3 | 46.5 | active
TP73 | 1 | 59.2 | active
TP73 | 2 | 64.2 | active
TP73 | 3 | 45.3 | active
EYA2 | 1 | 40 | active
EYA2 | 2 | 28.5 | active
EYA2 | 3 | 28.7 | active
PTPRC | 1 | 37.8 | active
PTPRC | 2 | 39.7 | active
PTPRC | 3 | 33.5 | active
NSD2 | 1 | 47.4 | active
NSD2 | 2 | 58.1 | active
NSD2 | 3 | 37.9 | active
PRKD1 | 1 | 78.1 | active
PRKD1 | 2 | 60.5 | active
PRKD1 | 3 | 47.9 | active
MAP4K2 | 1 | 60.4 | active
MAP4K2 | 2 | 51.7 | active
MAP4K2 | 3 | 61.8 | active
GDPD1 | 1 | 50 | active
GDPD1 | 2 | 38.2 | active
GDPD1 | 3 | 62.8 | active
SP140 | 1 | 47.9 | active
SP140 | 2 | 34.1 | active
SP140 | 3 | 34 | active
HDGFL2 | 1 | 57.6 | active
HDGFL2 | 2 | 33.6 | active
HDGFL2 | 3 | 44.1 | active
FANCF | 1 | 48 | active
FANCF | 2 | 35.1 | active
FANCF | 3 | 55.8 | active
ULK2 | 1 | 33.4 | active
ULK2 | 2 | 40.1 | active
ULK2 | 3 | 43.6 | active
MPG | 1 | 63.3 | active
MPG | 2 | 52.8 | active
MPG | 3 | 75.1 | active
PDCD10 | 1 | 51.9 | active
PDCD10 | 2 | 61.2 | active
PDCD10 | 3 | 49.9 | active
CDK10 | 1 | 57 | active
CDK10 | 2 | 63.9 | active
CDK10 | 3 | 38.8 | active
TEC | 1 | 52.9 | active
TEC | 2 | 67.9 | active
TEC | 3 | 54.1 | active

Targets above whose target name starts with T or t (6):
gene knocked down | technical replicate | viability, normalised (%) | Call
TP73 | 1 | 59.2 | active
TP73 | 2 | 64.2 | active
TP73 | 3 | 45.3 | active
TEC | 1 | 52.9 | active
TEC | 2 | 67.9 | active
TEC | 3 | 54.1 | active
